Among all 24,000 compounds or so, fewer than 10 were called active. Inconclusive means that the source gave no clear call. Such entries were picked first, then a sample of the others.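 How the source made its calls: active means fluorescent ligand binding to cells raised by more than 40% of the manganese-induced maximum; inconclusive means compound's own fluorescence above 85% of the ligand control signal; inactive means the rest.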
Target: Integrin alpha-4 (Homo sapiens) (UniProt P13612)
Test: enhancers of LDV-FITC binding to VLA-4 integrin, primary screen, Jurkat cells, flow cytometry (AID 528);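 on activation: 0% = ligand binding without compound and 100% = manganese-stimulated maximal binding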
Conditions: hits give high values, screened at 10 µM (by protocol)

Protein sequences, listed by entry. Tags and fused reporters are not part of them.
UniProt P13612, whole entry, looked up: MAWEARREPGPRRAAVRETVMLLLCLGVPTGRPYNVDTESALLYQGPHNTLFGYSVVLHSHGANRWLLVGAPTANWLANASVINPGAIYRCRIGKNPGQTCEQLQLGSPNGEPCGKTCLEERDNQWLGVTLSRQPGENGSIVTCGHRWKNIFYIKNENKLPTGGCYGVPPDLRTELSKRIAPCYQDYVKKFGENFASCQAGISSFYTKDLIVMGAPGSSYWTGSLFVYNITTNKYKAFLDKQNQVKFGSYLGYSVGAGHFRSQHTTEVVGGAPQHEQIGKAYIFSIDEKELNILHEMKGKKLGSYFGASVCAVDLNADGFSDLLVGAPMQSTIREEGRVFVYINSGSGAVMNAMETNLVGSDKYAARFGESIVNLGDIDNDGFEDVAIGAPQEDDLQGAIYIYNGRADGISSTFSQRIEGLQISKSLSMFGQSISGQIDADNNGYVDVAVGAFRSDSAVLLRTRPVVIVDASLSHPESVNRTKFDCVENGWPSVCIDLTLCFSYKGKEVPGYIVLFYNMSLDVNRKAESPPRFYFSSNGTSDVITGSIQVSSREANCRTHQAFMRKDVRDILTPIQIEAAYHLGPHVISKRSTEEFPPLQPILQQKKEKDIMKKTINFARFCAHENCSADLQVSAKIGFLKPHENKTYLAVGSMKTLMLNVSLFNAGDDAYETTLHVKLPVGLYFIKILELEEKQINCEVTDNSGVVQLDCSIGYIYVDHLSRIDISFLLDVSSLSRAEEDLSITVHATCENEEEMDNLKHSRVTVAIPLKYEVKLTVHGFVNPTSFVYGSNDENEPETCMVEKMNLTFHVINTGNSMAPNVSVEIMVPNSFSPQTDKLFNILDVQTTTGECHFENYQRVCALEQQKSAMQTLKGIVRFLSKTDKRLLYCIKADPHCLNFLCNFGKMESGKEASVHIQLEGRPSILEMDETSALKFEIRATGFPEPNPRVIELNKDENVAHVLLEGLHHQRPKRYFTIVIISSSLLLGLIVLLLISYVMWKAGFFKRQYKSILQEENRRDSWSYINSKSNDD

SMILES	activation
CC(C)COC(=O)C1C2C=CC3(CN(C4CCCC4)C(=O)C13)O2 (configuration not stated)	inactive: 1%
CCOc1ccccc1Nc1cc(C)nc2nc(C)nn12	inconclusive
O=C(Cc1coc(-c2ccc(F)cc2)n1)N1CCOCC1	inactive: -8%
COc1cc(NS(=O)(=O)N2CCCC2)cc(OC)c1OC	inconclusive
O=C(Nc1ccc(-n2nncc2-c2ccco2)cc1)c1cc2ccccc2oc1=O	inconclusive
O=C(Cc1c(C(=O)O)[nH]c2ccccc12)NCCN1CCN(c2ccccc2F)CC1	inactive: 0%
CCOC(=O)N1CCC(NC(=O)c2cc3cc4cc(OC)ccc4nc3o2)CC1	inconclusive
CCN(CC)CCCNC(=O)CC1Oc2ccc(C)cc2NC1=O (configuration not stated)	inconclusive
CN(c1ccc(OCc2nnc(-c3ccccc3)o2)cc1)S(=O)(=O)c1ccccc1	inactive: -9.7%
Cn1c(=O)[nH]c(=O)c2c1nc(CN1CCN(c3ccccc3F)CC1)n2CCCc1ccccc1	inconclusive
COc1cc(NC(=O)C2CCCN(S(=O)(=O)c3cccc4nsnc34)C2)cc(OC)c1 (configuration not stated)	inconclusive
COC(=O)c1c(C)[nH]c(C)c1-c1ccccc1Cl	inconclusive
CCCS(=O)(=O)N1CCC(C(=O)NCCCOCC)CC1	inactive: 1%
c1nc(N2CCC3(CC2)OCCO3)c2[nH]cnc2n1	inconclusive
O=C(Nc1ccc2oc(-c3ccccc3F)nc2c1)c1ccc2c(c1)OCCO2	inconclusive
CCCS(=O)(=O)N1CCC(C(=O)N2CCCC2)CC1	inactive: 2.5%
O=C(Nc1ccc(F)c(Cl)c1)c1ccc2c(=O)n3c(nc2c1)CCCCC3	inconclusive
Cc1nn(Cc2ccc(F)cc2)c(C)c1NC(=O)c1cc(-c2ccc3c(c2)OCO3)on1	inactive: -12%
O=C(COc1ccccc1)NCCn1ccc2ccccc21	inconclusive
CCOC(=O)c1sc(NC(=O)CSc2n[nH]c(-c3ccccc3)n2)c(C#N)c1C	inconclusive
CC(=O)c1nc2ccccc2n1S(=O)(=O)c1ccc(C)cc1	inconclusive
Oc1c(Cl)cc(Cl)cc1Sc1cc(Cl)cc(Cl)c1O	inconclusive
CCN(CC(=O)Nc1ccc(S(N)(=O)=O)cc1)S(=O)(=O)c1cc(C)ccc1OC	inactive: 3.5%
CCc1cccc(NC(=O)CS(=O)Cc2nc(-c3ccc(C)cc3)oc2C)c1 (configuration not stated)	inactive: -9%
O=C(NCCc1ccccc1)C1CCN(S(=O)(=O)c2cccc3nonc23)CC1	inconclusive

SMILES	activation
Cc1ccccc1C1CC(c2ccccc2OC(F)F)Nc2ncnn21 (configuration not stated)	inactive: 9%
CCCCOc1ccccc1NC(=O)CSc1nnnn1C(C)(C)C	inactive: 1%
O=C(C1CCN(c2ncnc3c2sc2cccc(F)c23)CC1)N1CCOCC1	inconclusive
CCn1c2ccccc2c2nnc(SCC(=O)NC(C(=O)OC)C(C)C)nc21 (configuration not stated)	inactive: 10%
O=C(CC(NCCN1CCOCC1)C(=O)O)Nc1cccc(Cl)c1 (configuration not stated)	inactive: 5%
CCN1CCN(c2ncnc3c2oc2nc(C)c4c(c23)CC(C)(C)OC4)CC1	inactive: 9%
O=C(CN1CCN(CC(=O)c2ccc(F)cc2)CC1)Nc1ccccc1Cl	inconclusive
Cc1cc(C)n(-c2nc3ccccc3nc2Nc2ccc(CC(=O)O)cc2)n1	inconclusive
c1ccc(CCn2nnnc2C(c2cccs2)N2CCOCC2)cc1 (configuration not stated)	inconclusive
CCOC(=O)c1[nH]c(C)c(C(=O)Nc2ccc(C)c(F)c2)c1C	inconclusive
COc1cccc(C2C=C(c3ccc(Br)s3)Nc3ncnn32)c1OC (configuration not stated)	inconclusive
CCOc1ccc(Br)cc1C1NC(=O)c2c(sc3c2CCN(C)C3)N1 (configuration not stated)	inconclusive
CCOCCCNC(=O)CCCn1nc(C)n2c(cc3sccc32)c1=O	inconclusive
CCCN(CCC)CCCNC(=O)c1cc2cc3ccc(OC)cc3nc2o1	inconclusive
CCN(CCCc1ccccc1)CCCc1ccccc1	inactive: 6%
O=C(CSc1ncnc2c1oc1ccccc12)OCc1ccccc1	inconclusive
CN1CCCN(C(=O)c2cc(=O)[nH]c3ccccc23)c2nc3ccccc3nc21	inactive: 2.5%
COCCCNC(=O)CSC1=Nc2ccccc2C2=NC(Cc3c[nH]c4ccccc34)C(=O)N12 (configuration not stated)	inconclusive
Cc1cc(C)nc(SCc2nnc(SCC(=O)Nc3ncc(C)s3)n2Cc2ccco2)n1	inconclusive
Cc1cc(C)c(S(=O)(=O)N2CCN(CCO)CC2)c(C)c1	inconclusive
Cc1nnc(C)n1/N=C/c1ccc(C(C)C)cc1	inactive: -4%
CCC(C)NC(=O)C1CCN(S(=O)(=O)CC)CC1 (configuration not stated)	inconclusive
COC(=O)c1ccc(NC(=O)c2sc3nc(-c4ccccc4)cn3c2C)cc1	inconclusive
O=C(NCc1cccnc1)C1CC(c2ccc(F)cc2)=NO1 (configuration not stated)	inactive: -5%
O=C(CN1C(=O)c2ccccc2C1=O)NCC1COc2ccccc2O1 (configuration not stated)	inconclusive

6 structures from above, ordered by length of the SMILES, descending:
SMILES	activation
COC(=O)c1ccc(NC(=O)c2sc3nc(-c4ccccc4)cn3c2C)cc1	inconclusive
Cc1cc(C)n(-c2nc3ccccc3nc2Nc2ccc(CC(=O)O)cc2)n1	inconclusive
O=C(C1CCN(c2ncnc3c2sc2cccc(F)c23)CC1)N1CCOCC1	inconclusive
Cc1cc(C)c(S(=O)(=O)N2CCN(CCO)CC2)c(C)c1	inconclusive
CCC(C)NC(=O)C1CCN(S(=O)(=O)CC)CC1 (configuration not stated)	inconclusive
CCN(CCCc1ccccc1)CCCc1ccccc1	inactive: 6%

The listing continues.

SMILES	activation
COc1ccc(-c2noc(-c3cccc(OC)c3OC)n2)cc1OC	inconclusive
O=C(CCC1N=C2c3ccccc3N=C(SCc3ccc(Cl)cc3)N2C1=O)NCc1ccco1 (configuration not stated)	inconclusive
O=C(CCCn1c(=O)c2sccc2n(Cc2ccc(F)cc2)c1=O)NCc1ccco1	inactive: 7%
Cc1cc(N2C(=O)C(O)=C(C(=O)c3ccc(C)o3)C2c2cccs2)no1 (configuration not stated)	inactive: 6%
CCn1c(=O)cc(OCC(=O)Nc2ccccc2N2CCN(C)CC2)c2ccccc21	inconclusive
CCc1ccc(NC(=O)CSc2nc3ccccc3c(=O)n2CCN2CCOCC2)cc1	inconclusive
O=C(OCc1nnc(-c2ccccc2)o1)c1ccc(S(=O)(=O)NCc2ccco2)cc1	inconclusive
CCOC(=O)c1c(C)n(OCc2ccccc2)c2ccc3c(no[n+]3[O-])c12	inconclusive
O=C(O)CCC(=O)c1c[nH]c2ccccc12	inactive: 11%
CCCN(CCC)S(=O)(=O)c1cc(Br)cc2c1N(C(=O)CC)CC2	inconclusive
COc1cc(C2C(C#N)=C(N)OC3=C2C(=O)CC(C)(C)C3)ccc1OC(=O)N1CCOCC1 (configuration not stated)	inconclusive
CCOC(=O)c1c(C)oc2c1c(C(c1ccncc1)N1CCOCC1)c(O)c1ccccc12 (configuration not stated)	inactive: -18%
CC(=O)Nc1nc(C)nc(C)c1C(C)=O	inconclusive
CCCCC1C(=O)N(c2ccccc2)N(c2ccccc2)C1=O	inactive: -43.3%
CCOC(=O)CN1C(=O)COc2ccc(Cl)cc21	inconclusive
COc1ccc(CN2C(=O)CN(C3CCCCCC3)C(=O)C2c2ccc(OC)c(OC)c2)cc1 (configuration not stated)	inconclusive
COc1cc(C2C(C(=O)c3ccc(C)o3)=C(O)C(=O)N2c2cc(C)on2)cc(Br)c1O (configuration not stated)	inactive: 0.5%
CCOc1ccc(NC(=O)c2ccc(F)c(S(=O)(=O)N3CCN(c4ccccn4)CC3)c2)cc1	inconclusive
CC1(C)CC(=O)N(CC(=O)NCc2ccc(F)cc2)c2ccccc2S1(=O)=O	inconclusive
Cc1ccc(CNC(=O)CS(=O)Cc2nc(-c3ccccc3C)oc2C)cc1 (configuration not stated)	inconclusive
CCc1ccc(-c2nc(CN3CCC(C(=O)NCc4ccccc4OC)CC3)c(C)o2)cc1	inconclusive
COc1ccc(OC)c2[nH]c(=O)c(CCNC(=O)c3ccc(S(=O)(=O)N4CCCCC4)cc3)cc12	inconclusive
Cc1nc2nc[nH]n2c(=O)c1NC(=O)c1c(-c2ccccc2Cl)noc1C	inactive: 5.5%
CCOc1ccc(-n2ccnc2SCC(=O)Nc2nnc(C)s2)cc1	inconclusive
COC(=O)c1sc2ccccc2c1N	inconclusive

SMILES	activation
CCOC(=O)CSc1nnc(CNC(=O)c2ccc(OC)cc2)n1C1CCCCC1	inactive: -3%
COC(=O)c1[nH]c2ccc(F)cc2c1NS(=O)(=O)c1ccc(OC)cc1OC	inconclusive
COc1cc(NC(=O)c2ccc3c(=O)n(Cc4ccco4)c(=S)[nH]c3c2)cc(OC)c1OC	inconclusive
CCCOc1ccc(C(CC(=O)O)NC(=O)C23CC4CC(CC(C4)C2)C3)cc1 (configuration not stated)	inactive: -26%
Cc1ccccc1Cc1c(C)nc2c(C(=O)NCc3ccco3)cnn2c1C	inconclusive
O=C(O)CCCNS(=O)(=O)c1ccc(NCc2ccccc2)c(C(=O)O)c1	inactive: 0%
CCCn1c(C(O)c2ccc(OCC)cc2)nc2ccccc21 (configuration not stated)	inconclusive
COCCCN1C(=O)C(O)=C(C(C)=O)C1c1ccccn1 (configuration not stated)	inactive: -2.5%
COc1ccc(Cl)cc1C(=O)Nn1c(C)nc2ccccc2c1=O	inconclusive
O=C(CCN1C(=O)c2ccncc2C1=O)Nc1ccc2c(c1)OCCO2	inconclusive
Cn1c(=O)n(CC(=O)OCc2ccccc2)c(=O)c2c1nc1n2CCCN1C1CCCCC1	inconclusive
Nc1nc(C2CC2)c(Sc2sc(N)nc2C2CC2)s1	inactive: 1%
CC1CCC(NC(=O)CN2C(=O)C3CCCN3c3ncc(Cl)cc32)CC1 (configuration not stated)	inconclusive
COc1ccc(C(=O)OCC(=O)c2ccc(C)c(S(=O)(=O)N3CCOCC3)c2)cc1OC	inconclusive
COc1ccc(N2CCN(c3nc4c(c(=O)[nH]c(=O)n4C)n3CCCc3ccccc3)CC2)cc1	inactive: 2.5%
O=C(NCCN1C(=O)C2C3C=CC(C3)C2C1=O)Nc1ccc(Br)cc1 (configuration not stated)	inconclusive
O=c1oc2ccccc2c(O)c1C=NCc1ccccn1	inconclusive
COc1ccc(C)cc1Nc1cc(C)nc2ncnn12	inconclusive
Cc1[nH]nc2c1C1(C(=O)N(Cc3ccc(Cl)cc3)c3ccccc31)C(C#N)=C(N)O2 (configuration not stated)	inconclusive
CCOc1ccccc1NC(=O)CCC(=O)Nc1ccc2nc(N3CCN(C)CC3)cc(C)c2c1	inactive: 3%
Cc1noc(C)c1S(=O)(=O)N1CCCC(C(=O)Nc2cccnc2)C1 (configuration not stated)	inactive: -5%
CCOC(=O)c1ccc(S(=O)(=O)N2CCN(CCC#N)CC2)cc1	inconclusive

An excerpt from the list above:
SMILES	activation
CCCn1c(C(O)c2ccc(OCC)cc2)nc2ccccc21 (configuration not stated)	inconclusive
COCCCN1C(=O)C(O)=C(C(C)=O)C1c1ccccn1 (configuration not stated)	inactive: -2.5%
